A short description of this data set: general procedure: peptide synthesis; HBTU/DIEA. Conditions: late stage modification step; for final HPLC purity: UV=220 nm, HPLC system B.

With “Methyl 1-acetyl-L-prolyl-L-leucylglycyl-α-(4-nitrophenylamino)-glycyl-L-leucyl-β-alaninate slow D-like diastereomer”, the step yield came to 17% and the “final HPLC purity” value is over 99%.

Consider “Methyl 1-acetyl-L-prolyl-L-leucylglycyl-α-(4-nitrophenylamino)-glycyl-L-leucylglycinate slow D-like diastereomer”, for which the step yield was 16%. For “Methyl 1-acetyl-L-prolyl-L-leucylglycyl-α-R-(4-nitrophenylamino)-glycyl-L-leucyl-β-alaninate”, the step yield is 22% and the “final HPLC purity” value was over 99%. The substance “Methyl 1-acetyl-L-prolyl-L-leucylglycyl-α-R-(4-nitrophenylamino)-glycyl-L-leucylglycinate” showed a step yield of 9%.

Substance “Methyl 1-acetyl-L-prolyl-L-leucylglycyl-α-R-[4-(5-p-tolyl-[1,3,4]oxadiazol-2-yl)-phenylamino]-glycyl-L-leucylglycinate” showed a step yield of 36%.

Substance “Methyl 1-acetyl-L-prolyl-L-leucylglycyl-α-[4-(5-p-tolyl-[1,3,4]oxadiazol-2-yl)-phenylamino]-glycyl-L-leucylglycinate slow D-like diastereomer” showed a step yield of 8%.

For the origin of these results see patent US20100021940A1 (ASTRAZENECA AB, priority 2006, published 2010).
